Binding data for one molecule are collected here from publication PMC6177406.

Amino acid sequences for entries named in this document (tags omitted).
UniProt P03372: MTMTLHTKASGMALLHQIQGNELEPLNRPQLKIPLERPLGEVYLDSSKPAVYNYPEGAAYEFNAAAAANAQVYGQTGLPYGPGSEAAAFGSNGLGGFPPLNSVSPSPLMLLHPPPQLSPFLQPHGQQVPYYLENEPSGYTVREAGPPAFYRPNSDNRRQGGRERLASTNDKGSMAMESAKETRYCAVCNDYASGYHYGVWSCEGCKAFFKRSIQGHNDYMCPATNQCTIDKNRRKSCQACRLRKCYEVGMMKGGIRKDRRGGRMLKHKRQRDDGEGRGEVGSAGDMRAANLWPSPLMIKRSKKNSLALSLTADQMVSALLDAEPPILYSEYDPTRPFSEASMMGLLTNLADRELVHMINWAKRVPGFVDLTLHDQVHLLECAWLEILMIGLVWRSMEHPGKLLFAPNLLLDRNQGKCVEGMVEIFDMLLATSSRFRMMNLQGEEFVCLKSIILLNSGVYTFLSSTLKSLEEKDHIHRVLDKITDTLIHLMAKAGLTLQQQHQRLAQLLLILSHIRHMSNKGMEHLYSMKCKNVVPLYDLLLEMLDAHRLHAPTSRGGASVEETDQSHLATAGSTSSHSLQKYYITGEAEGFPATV

Results are given in words; binding and its absence hold for the method and conditions named. Binding seen in cells or lysates may run through a third protein. Some entries that bind do so weakly or less than the wild type. Where a sequence is shown, tags or fusion partners need not be part of it.

The target in one assay is FLAG-ERα (human) (UniProt P03372). The experiment in a line: co-IP; HEK293T cells co-transfected with a FLAG-tagged and a GFP-tagged protein; lysate precipitated with anti-FLAG affinity gel, immunoblot with anti-GFP antibody; for FLAG-ERα and GFP-Aurora-A in LEM4-depleted HEK293T-shLEM4 cells. A general note: In western blotting, separated proteins are transferred to a membrane and probed.

The next assay concerns the target T1, FLAG-LEM4 (human) (UniProt Q86XL3).
T1 sequence: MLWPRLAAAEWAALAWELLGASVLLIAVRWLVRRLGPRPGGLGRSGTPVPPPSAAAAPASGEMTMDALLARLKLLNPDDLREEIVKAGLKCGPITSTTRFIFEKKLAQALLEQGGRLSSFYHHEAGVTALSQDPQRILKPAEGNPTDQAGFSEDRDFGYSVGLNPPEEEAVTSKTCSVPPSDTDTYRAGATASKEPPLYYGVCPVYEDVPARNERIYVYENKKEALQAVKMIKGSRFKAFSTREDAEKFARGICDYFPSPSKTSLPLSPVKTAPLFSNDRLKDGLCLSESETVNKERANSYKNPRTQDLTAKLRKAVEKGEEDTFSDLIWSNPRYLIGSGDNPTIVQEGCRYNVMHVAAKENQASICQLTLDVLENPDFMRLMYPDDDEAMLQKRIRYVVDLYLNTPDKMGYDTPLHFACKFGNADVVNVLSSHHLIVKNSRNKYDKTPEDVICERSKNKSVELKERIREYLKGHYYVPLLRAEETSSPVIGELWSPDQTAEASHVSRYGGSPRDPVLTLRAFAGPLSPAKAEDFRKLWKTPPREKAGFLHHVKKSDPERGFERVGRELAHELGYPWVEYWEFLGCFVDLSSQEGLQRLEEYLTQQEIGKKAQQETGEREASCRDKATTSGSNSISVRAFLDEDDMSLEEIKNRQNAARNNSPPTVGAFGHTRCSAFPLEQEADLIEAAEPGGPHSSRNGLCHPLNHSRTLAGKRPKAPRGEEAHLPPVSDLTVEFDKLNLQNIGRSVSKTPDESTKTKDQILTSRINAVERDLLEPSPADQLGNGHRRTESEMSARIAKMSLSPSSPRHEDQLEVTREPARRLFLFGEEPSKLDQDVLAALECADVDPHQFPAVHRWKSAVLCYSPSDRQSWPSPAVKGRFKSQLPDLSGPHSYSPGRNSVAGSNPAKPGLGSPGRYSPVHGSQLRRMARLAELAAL
Described as above.

B1: GFP-Aurora-A (protein, UniProt O14965 1-403)
chain: MDRSKENCISGPVKATAPVGGPKRVLVTQQFPCQNPLPVNSGQAQRVLCPSNSSQRIPLQAQKLVSSHKPVQNQKQKQLQATSVPHPVSRPLNNTQKSKQPLPSAPENNPEEELASKQKNEESKKRQWALEDFEIGRPLGKGKFGNVYLAREKQSKFILALKVLFKAQLEKAGVEHQLRREVEIQSHLRHPNILRLYGYFHDATRVYLILEYAPLGTVYRELQKLSKFDEQRTATYITELANALSYCHSKRVIHRDIKPENLLLGSAGELKIADFGWSVHAPSSRRTTLCGTLDYLPPEMIEGRMHDEKVDLWSLGVLCYEFLVGKPPFEANTYQETYKRISRVEFTFPDFVTEGARDLISRLLKHNPSQRPMLREVLEHPWITANSSKPSNCQNKESASKQS
As to B1, the binding result with FLAG-ERα (human) and in the assay with FLAG-LEM4 (human) was “binds” each time.
